From ChEMBL document CHEMBL3988442, “University of Dundee, Small-Polar-MMV Screening Library” (2021).

By UniProt entry, the sequences of proteins in these tests, tags left out. Residues count along the entry.
UniProt P9WFT3, whole entry: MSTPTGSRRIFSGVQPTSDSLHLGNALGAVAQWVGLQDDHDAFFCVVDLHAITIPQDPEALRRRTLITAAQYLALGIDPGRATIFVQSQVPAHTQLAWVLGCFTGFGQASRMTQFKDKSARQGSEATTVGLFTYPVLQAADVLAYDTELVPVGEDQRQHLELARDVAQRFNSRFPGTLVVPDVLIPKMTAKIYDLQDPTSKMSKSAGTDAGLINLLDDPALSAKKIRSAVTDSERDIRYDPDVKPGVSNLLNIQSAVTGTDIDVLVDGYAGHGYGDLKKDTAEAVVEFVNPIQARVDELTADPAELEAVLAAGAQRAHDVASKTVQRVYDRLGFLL
UniProt P9WPC5, whole entry: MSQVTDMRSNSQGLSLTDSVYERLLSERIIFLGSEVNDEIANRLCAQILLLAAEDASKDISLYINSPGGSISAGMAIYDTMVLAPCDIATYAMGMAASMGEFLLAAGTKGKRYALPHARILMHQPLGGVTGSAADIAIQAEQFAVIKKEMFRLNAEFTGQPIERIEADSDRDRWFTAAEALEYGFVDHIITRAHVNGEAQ
UniProt P9WPC3, whole entry partner: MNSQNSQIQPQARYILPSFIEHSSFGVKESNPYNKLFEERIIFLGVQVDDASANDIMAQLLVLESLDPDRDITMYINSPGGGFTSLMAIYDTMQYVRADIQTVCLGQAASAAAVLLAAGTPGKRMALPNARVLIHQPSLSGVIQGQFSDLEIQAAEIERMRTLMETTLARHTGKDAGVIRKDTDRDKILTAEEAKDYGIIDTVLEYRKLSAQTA
UniProt Q8IDJ8, 1-583: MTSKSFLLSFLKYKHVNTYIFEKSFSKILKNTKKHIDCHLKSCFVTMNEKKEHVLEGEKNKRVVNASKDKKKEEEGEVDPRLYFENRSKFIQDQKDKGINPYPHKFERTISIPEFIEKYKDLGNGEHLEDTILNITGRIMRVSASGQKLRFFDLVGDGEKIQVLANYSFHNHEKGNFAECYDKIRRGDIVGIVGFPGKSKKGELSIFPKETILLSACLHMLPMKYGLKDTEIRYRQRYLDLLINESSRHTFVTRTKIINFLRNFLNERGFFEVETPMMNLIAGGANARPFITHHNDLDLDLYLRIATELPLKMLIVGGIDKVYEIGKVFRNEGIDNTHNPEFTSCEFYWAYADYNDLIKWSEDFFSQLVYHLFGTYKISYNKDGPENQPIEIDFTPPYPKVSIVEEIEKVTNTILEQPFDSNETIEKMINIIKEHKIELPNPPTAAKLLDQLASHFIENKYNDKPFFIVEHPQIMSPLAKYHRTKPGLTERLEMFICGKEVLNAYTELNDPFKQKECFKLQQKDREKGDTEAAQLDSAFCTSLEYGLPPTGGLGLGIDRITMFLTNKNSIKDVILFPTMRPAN
UniProt P9WNZ1, whole entry: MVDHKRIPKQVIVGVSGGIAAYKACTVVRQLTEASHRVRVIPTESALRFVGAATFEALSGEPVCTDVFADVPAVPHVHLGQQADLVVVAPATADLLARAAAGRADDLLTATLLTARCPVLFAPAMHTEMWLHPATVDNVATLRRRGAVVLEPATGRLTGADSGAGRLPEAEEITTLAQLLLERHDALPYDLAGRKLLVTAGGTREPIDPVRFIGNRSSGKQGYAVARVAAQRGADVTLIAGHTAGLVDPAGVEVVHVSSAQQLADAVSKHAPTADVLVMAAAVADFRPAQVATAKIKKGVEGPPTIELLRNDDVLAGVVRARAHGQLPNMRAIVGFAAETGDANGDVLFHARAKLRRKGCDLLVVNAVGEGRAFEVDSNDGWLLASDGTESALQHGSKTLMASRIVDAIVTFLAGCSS

Each number is a percent effect as filed.
How 0% and 100% were set is not recorded. Most values in the screen are low, and negative values occur.
This is an unselected part of the compounds tested.
Two or more numbers in one place are separate tests of the same structure; such repeats can differ widely.

A: 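Enzyme assay of tryptophanyl-tRNA synthetase; the read-out is not stated. Target: Tryptophan-tRNA ligase, Mycobacterium tuberculosis (UniProt P9WFT3). Compounds at 10 µM. Direction is not recorded; retested compounds ran higher, which suggests that high means inhibition. Of about 65,000 compounds tested this way, about 64 (0.098%) reached 50% or more in at least one test.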
B: 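Protease assay of ClpP1P2, read by the AMC dye that it sets free. Target: ClpP1P2, Mycobacterium tuberculosis (UniProt P9WPC5 and UniProt P9WPC3). Tested at 50 µM. Direction is inferred from only a few compounds that gave an IC50; most scored high, so higher reads as stronger inhibition. Most other retested compounds had strongly negative values. About 69,000 compounds were tested under these conditions; 0.015% (about 10) showed 50% or more at least once.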
C: 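Cell assay of Leishmania donovani living inside macrophages; the read-out is not stated. Tested at 30 µM. Higher reads as stronger inhibition (inferred: compounds with an IC50 in retests scored well above the rest). About 69,000 compounds were tested under these conditions; 1.5% (about 1,000) showed 50% or more at least once.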
D: 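Lysine-tRNA ligase, Plasmodium falciparum 3D7 (UniProt Q8IDJ8). Enzyme assay of the cytosolic lysyl-tRNA synthetase in 384-well plates, read by luminescence. Tested at 30 µM. Direction is inferred from only a few compounds that gave an IC50; most scored high, so higher reads as stronger inhibition. About 69,000 compounds were tested under these conditions; 0.071% (about 49) showed 50% or more at least once.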
E: 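Coenzyme A biosynthesis protein CoaBC, Mycobacterium tuberculosis (UniProt P9WNZ1). Enzyme assay of CoaBC with a phosphate dye (Biomol Green) read at 650 nm. Concentration: 30 µM. Higher reads as stronger inhibition, judged from the few compounds that gave an IC50. Most strong results did not repeat in a second test. About 67,000 compounds were tested under these conditions; 0.06% (about 40) showed 50% or more at least once.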

{"smiles": "CCc1nnc2ccc(NCC3(N4CCCCC4)CCOCC3)nn12", "A": -2.676, "B": 3.311, "C": 11.48, "D": 2.873, "E": -1.629}
{"smiles": "O=C(CCCc1ncc(-c2ccccc2)o1)N1CCN(CCO)CC1", "A": -2.754, "B": 16.1, "C": 27.63, "D": 8.663, "E": 5.656}
{"smiles": "CC(=O)N1CCCC2(C1)CN(c1ncc(C)cn1)CCO2.O=C(O)C(F)(F)F", "stereo": "configuration not stated", "C": 17.44}
{"smiles": "CN(C)C(=O)CN1CCO[C@H]2CN(Cc3cccc(F)c3)C[C@H]21", "B": -7.272, "D": 2.582, "E": -0.2475}
{"smiles": "Cc1nc2c(c(=O)n1C)CCN(C(=O)Cn1cccc1)CC2", "A": 2.422, "B": 0.5247, "C": -4.978, "D": 4.72, "E": -1.815}
{"smiles": "CCCS(=O)(=O)c1ccc(N2CCN(c3ccccn3)CC2)nn1", "A": 10.11, "B": -0.1982, "C": "21.89 & -0.6946", "D": -3.429, "E": 12.47}
{"smiles": "COc1ccc(C(C(=O)O)N(C)CCN2CCCC2)cc1F", "stereo": "configuration not stated", "A": -4.182, "B": 14.89, "C": -20.39, "D": 6.18, "E": -1.208}
{"smiles": "COc1ccc(CN2CC(n3cccn3)C2)cc1F", "A": 0.3067, "B": -0.2969, "C": -1.479, "D": 4.294, "E": -3.439}
{"smiles": "CSCCC(=O)N1C[C@@H](C)[C@](O)(C(C)C)C1", "A": 0.129, "B": 0.3916, "C": -12.02, "D": 3.872, "E": 2.694}
{"smiles": "CCN(C1CCS(=O)(=O)C1)S(=O)(=O)c1cccc2cc(C)cnc12", "stereo": "configuration not stated", "A": 4.191, "B": 10.19, "C": 5.713, "D": 11.49, "E": 2.838}
{"smiles": "Cc1ccc2c(n1)N(CCN(C)C)CCN(C(=O)c1ccco1)C2", "A": 0.5307, "B": -5.137, "C": -22.42, "D": 6.066, "E": -1.36}
{"smiles": "[H][C@@]12C[C@H](C(=O)N3CCOCC3)[C@@]([H])(CN(c3ncc(F)cn3)C1)O2", "C": 9.424}
{"smiles": "Cc1nnn2c1COCC(CNC(=O)c1ccc[nH]1)C2", "stereo": "configuration not stated", "A": 0.3487, "B": 6.785, "C": 9.406, "D": 4.98, "E": 2.101}
{"smiles": "CCOCC(=O)N1CC[C@H]2OCC[C@@]2(COc2ncccc2F)C1", "A": -0.7647, "B": -1.567, "D": 5.633, "E": 4.673}
{"smiles": "Cn1cc(N2CCC3(CCCN(C(=O)c4ccnn4C)C3)C2=O)cn1", "stereo": "configuration not stated", "A": -0.9009, "B": -8.738, "C": 9.197, "D": 2.892, "E": -1.356}
{"smiles": "NC(=O)CCNC(=O)C1(N2CCCCC2)Cc2ccccc2C1", "A": 7.059, "B": -14.46, "C": -0.9069, "D": 0.9794, "E": "20.39 & 16.93"}
{"smiles": "CC(C)CNC(=O)C1=NOC2(CCN(Cc3ccoc3)C2)C1", "stereo": "configuration not stated", "B": 0.7903, "C": 38.77, "D": 3.171, "E": 3.415}
{"smiles": "CC(C(=O)NCCCn1ccnc1)n1cc(Br)cn1", "stereo": "configuration not stated", "A": -4.888, "B": 4.919, "C": 37.09, "D": 0.9411, "E": -53.64}
{"smiles": "Cc1oc(C)c(C(=O)NS(=O)(=O)c2ccc3c(c2)OCCO3)c1Br", "A": -3.786, "B": 1.3, "C": 16.41, "D": 2.692, "E": 3.19}
{"smiles": "Cc1nc(C)c(CNCC2CCCn3ccnc32)s1", "stereo": "configuration not stated", "A": 4.262, "B": -6.192, "C": 6.069, "D": -5.619, "E": 6.048}
{"smiles": "O=C(C1CC(F)(F)C1)N1C[C@@H]2CN(CC3CC3)CCO[C@@H]2C1", "B": -0.007743, "D": 1.84, "E": 1.576}
{"smiles": "O=C1CCC2(CCN(Cc3ncccn3)CC2)CN1CCCO", "A": -4.549, "B": -9.71, "C": 3.163, "D": 1.321, "E": 13.11}
{"smiles": "CCN1Cc2c(C(=O)NCC3CC3)ncn2-c2ccccc2S1(=O)=O", "A": 1.398, "B": 8.752, "C": 35.52, "D": 2.664, "E": 9.247}
{"smiles": "Cc1nc(CN2CCN(c3cc(CCN)ncn3)CC2)cs1", "A": 2.413, "B": -5.017, "C": 24.38, "D": 5.93, "E": -6.561}
{"smiles": "CN1CCN(C[C@@H]2OC[C@H]3CN(CCc4ccccc4)CC[C@H]32)CC1", "B": -8.281, "D": 4.381, "E": -2.927}

Some entries from above, unchanged:

{"smiles": "COc1ccc(C(C(=O)O)N(C)CCN2CCCC2)cc1F", "stereo": "configuration not stated", "A": -4.182, "B": 14.89, "C": -20.39, "D": 6.18, "E": -1.208}
{"smiles": "COc1ccc(CN2CC(n3cccn3)C2)cc1F", "A": 0.3067, "B": -0.2969, "C": -1.479, "D": 4.294, "E": -3.439}